# From the supplement of paper PMC12823440, “Inhibitors supercharge kinase turnover through native proteolytic circuits” (Nature, 2025)
# Counter-ions that a name gives are not always drawn. Some of the results follow. Hit calls seldom repeat between salt and free forms of one compound.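 In K562 cells expressing nanoluciferase-fused kinases, luminescence was recorded at 4 h intervals between 2 and 18 h, normalized as percent of control with DMSO at 100% and a positive control at 0%. A significant (2 sigma) signal drop marks a time point as decreased. The authors' rule for a hit is not shown and takes in more than the number of time points.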
# Target: EGFR_G719S_T790M (UniProt P00533)
# Test: kinase-Nluc reporter destabilization hit call (1 = scored as downregulated) (binary); higher = compound decreases kinase abundance
# Conditions: K562; 2-18 h
row,SMILES,kinase-Nluc reporter destabilization hit call
1,O=c1[nH]c2ccccc2n1C1CCN(Cc2ccc(-c3[nH]c4cc5ncnc5cc4nc3-c3ccccc3)cc2)CC1 [AKT inhibitor VIII] (2.5 µM),inactive: 0
2,C[C@H]1CC[C@]2(NC1)O[C@H]1C[C@H]3[C@@H]4CC[C@H]5C[C@@H](O[C@@H]6O[C@H](CO)[C@H](O[C@@H]7O[C@H](CO)[C@@H](O)[C@H](O[C@@H]8OC[C@@H](O)[C@H](O)[C@H]8O)[C@H]7O[C@@H]7O[C@H](CO)[C@@H](O)[C@H](O)[C@H]7O)[C@H](O)[C@H]6O)CC[C@]5(C)[C@H]4CC[C@]3(C)[C@H]1[C@@H]2C [Tomatine] (2.5 µM),inactive: 0
3,C=C[C@H]1CN2CC[C@]3(C(=O)Nc4ccccc43)[C@@H]2C[C@@H]1/C(=C\OC)C(=O)OC [Corynoxeine] (2 µM),inactive: 0
4,C=CC(=O)Nc1ccc2[nH]c(=O)n(C3CCN(Cc4ccc(-c5nc6cc[nH]c(=O)c6cc5-c5ccccc5)cc4)CC3)c2c1 [Borussertib] (10 µM),inactive: 0
5,CCOC(=O)c1c(/C(C#N)=C\N)c2ccc(Cl)c(Cl)c2n1C (10 µM),inactive: 0
6,CC(=O)OC(C)(C)/C=C/C(=O)[C@](C)(O)[C@H]1[C@H](O)C[C@@]2(C)[C@@H]3CC=C4[C@@H](C=C(O)C(=O)C4(C)C)[C@]3(C)C(=O)C[C@]12C [Cucurbitacin E] (2.5 µM),inactive: 0
7,Cc1[nH]ncc1-c1cc2nc([C@H]3CC4CCN3CC4)[nH]c(=O)c2s1 [(R)-Simurosertib] (10 µM),inactive: 0
8,C[C@H]1CC[C@]2(NC1)O[C@H]1C[C@H]3[C@@H]4CC[C@H]5C[C@@H](O)CC[C@]5(C)[C@H]4CC[C@]3(C)[C@H]1[C@@H]2C [Tomatidine] (2 µM),inactive: 0
9,O=Cc1cn(Cc2ccc(Cl)cc2)c2ccccc12 [Oncrasin-1] (10 µM),inactive: 0
10,O=[N+]([O-])/C=C/c1ccc2c(c1)OCO2 (2.5 µM),inactive: 0
11,CCN1CCN(C(=O)Cc2ccc(Nc3ncc(F)c(Nc4ccc(C(=O)Nc5ccccc5Cl)cc4)n3)cc2)CC1 (2.5 µM),inactive: 0
12,COc1ccc2c(c[n+](C)c3c4cc5c(cc4ccc23)OCO5)c1OC [Chelerythrine (chloride)] (10 µM),inactive: 0
13,COC[C@H]1OC(=O)c2coc3c2[C@@]1(C)C1=C(C3=O)[C@@H]2CCC(=O)[C@@]2(C)C[C@H]1OC(C)=O [Wortmannin] (2.5 µM),inactive: 0
14,C[C@H]1CC[C@]2(NC1)O[C@H]1C[C@H]3[C@@H]4CC[C@H]5C[C@@H](O)CC[C@]5(C)[C@H]4CC[C@]3(C)[C@H]1[C@@H]2C [Tomatidine (hydrochloride)] (10 µM),inactive: 0
15,COc1ccc(/C=C/c2cc(OC)c(OC)c(OC)c2)cc1 (2.5 µM),inactive: 0
16,O=c1cc(O)c2ccccc2o1 [4-Hydroxycoumarin] (10 µM),inactive: 0
17,C=CC(=O)N[C@H]1C=C(C)c2c(-c3cnc4ccccc4c3)c3c(N)ncnc3n2C1 (10 µM),inactive: 0
18,N#CC(C#N)=Cc1ccc([N+](=O)[O-])c(O)c1 (10 µM),inactive: 0
19,O=C(O)c1sc2cc(Cl)ccc2c1Cl (10 µM),inactive: 0
20,Cc1n[nH]cc1-c1cc2nc([C@@H]3CC4CCN3CC4)[nH]c(=O)c2s1 [Simurosertib] (2.5 µM),inactive: 0
21,Cn1cc(C2=C(c3cn(C4CCN(Cc5ccccn5)CC4)c4ccccc34)C(=O)NC2=O)c2ccccc21 [Enzastaurin] (10 µM),inactive: 0
22,CN(C)C(=O)c1ccc(Cn2c(C(=O)O)cc3c(Br)cc(Sc4ccc(Cl)c(Cl)c4)cc32)cc1 [Rheb inhibitor NR1] (10 µM),inactive: 0
23,C/C(O)=C(\C#N)C(=O)Nc1cc(Br)ccc1Br (10 µM),inactive: 0
24,O=C1c2ccccc2C(=O)c2c1cccc2-c1cnn(C2CCNCC2)c1 [PDK4-IN-1 (hydrochloride)] (10 µM),inactive: 0
25,COc1ccc(N(C(=O)Oc2c(C)cccc2C)c2ccnc(Nc3ccc(N4CCN(C)CC4)cc3)n2)c(OC)c1 (2.5 µM),inactive: 0
26,C[C@@H]1CC[C@H]2[C@@H](C)C(=O)O[C@@H]3O[C@@]4(C)CC[C@@H]1[C@]32OO4 [Artemisinin] (10 µM),inactive: 0
27,CC(C)(C)c1cc(C=C(C#N)C#N)cc(Br)c1O (2.5 µM),inactive: 0
28,CC1=C[C@]23C(=O)[C@@H](C=C(CO)[C@@H](O)[C@]2(O)[C@H]1O)[C@H]1[C@@H](C[C@H]3C)C1(C)C [Ingenol] (10 µM),inactive: 0

# Target: EGFR_L718V (UniProt P00533)
# Test: as above
# Conditions: K562; 2-18 h
row,SMILES,kinase-Nluc reporter destabilization hit call
1,O=c1[nH]c2ccccc2n1C1CCN(Cc2ccc(-c3[nH]c4cc5ncnc5cc4nc3-c3ccccc3)cc2)CC1 [AKT inhibitor VIII] (2.5 µM),inactive: 0
2,C[C@H]1CC[C@]2(NC1)O[C@H]1C[C@H]3[C@@H]4CC[C@H]5C[C@@H](O[C@@H]6O[C@H](CO)[C@H](O[C@@H]7O[C@H](CO)[C@@H](O)[C@H](O[C@@H]8OC[C@@H](O)[C@H](O)[C@H]8O)[C@H]7O[C@@H]7O[C@H](CO)[C@@H](O)[C@H](O)[C@H]7O)[C@H](O)[C@H]6O)CC[C@]5(C)[C@H]4CC[C@]3(C)[C@H]1[C@@H]2C [Tomatine] (2.5 µM),inactive: 0
3,C=C[C@H]1CN2CC[C@]3(C(=O)Nc4ccccc43)[C@@H]2C[C@@H]1/C(=C\OC)C(=O)OC [Corynoxeine] (2 µM),inactive: 0
4,C=CC(=O)Nc1ccc2[nH]c(=O)n(C3CCN(Cc4ccc(-c5nc6cc[nH]c(=O)c6cc5-c5ccccc5)cc4)CC3)c2c1 [Borussertib] (10 µM),inactive: 0
5,CCOC(=O)c1c(/C(C#N)=C\N)c2ccc(Cl)c(Cl)c2n1C (10 µM),inactive: 0
6,CC(=O)OC(C)(C)/C=C/C(=O)[C@](C)(O)[C@H]1[C@H](O)C[C@@]2(C)[C@@H]3CC=C4[C@@H](C=C(O)C(=O)C4(C)C)[C@]3(C)C(=O)C[C@]12C [Cucurbitacin E] (2.5 µM),inactive: 0
7,Cc1[nH]ncc1-c1cc2nc([C@H]3CC4CCN3CC4)[nH]c(=O)c2s1 [(R)-Simurosertib] (10 µM),inactive: 0
8,C[C@H]1CC[C@]2(NC1)O[C@H]1C[C@H]3[C@@H]4CC[C@H]5C[C@@H](O)CC[C@]5(C)[C@H]4CC[C@]3(C)[C@H]1[C@@H]2C [Tomatidine] (2 µM),inactive: 0
9,O=Cc1cn(Cc2ccc(Cl)cc2)c2ccccc12 [Oncrasin-1] (10 µM),inactive: 0
10,O=[N+]([O-])/C=C/c1ccc2c(c1)OCO2 (2.5 µM),inactive: 0
11,CCN1CCN(C(=O)Cc2ccc(Nc3ncc(F)c(Nc4ccc(C(=O)Nc5ccccc5Cl)cc4)n3)cc2)CC1 (2.5 µM),inactive: 0
12,COc1ccc2c(c[n+](C)c3c4cc5c(cc4ccc23)OCO5)c1OC [Chelerythrine (chloride)] (10 µM),inactive: 0
13,COC[C@H]1OC(=O)c2coc3c2[C@@]1(C)C1=C(C3=O)[C@@H]2CCC(=O)[C@@]2(C)C[C@H]1OC(C)=O [Wortmannin] (2.5 µM),inactive: 0
14,C[C@H]1CC[C@]2(NC1)O[C@H]1C[C@H]3[C@@H]4CC[C@H]5C[C@@H](O)CC[C@]5(C)[C@H]4CC[C@]3(C)[C@H]1[C@@H]2C [Tomatidine (hydrochloride)] (10 µM),inactive: 0
15,COc1ccc(/C=C/c2cc(OC)c(OC)c(OC)c2)cc1 (2.5 µM),inactive: 0
16,O=c1cc(O)c2ccccc2o1 [4-Hydroxycoumarin] (10 µM),inactive: 0
17,C=CC(=O)N[C@H]1C=C(C)c2c(-c3cnc4ccccc4c3)c3c(N)ncnc3n2C1 (10 µM),inactive: 0
18,N#CC(C#N)=Cc1ccc([N+](=O)[O-])c(O)c1 (10 µM),inactive: 0
19,O=C(O)c1sc2cc(Cl)ccc2c1Cl (10 µM),inactive: 0
20,Cc1n[nH]cc1-c1cc2nc([C@@H]3CC4CCN3CC4)[nH]c(=O)c2s1 [Simurosertib] (2.5 µM),inactive: 0
21,Cn1cc(C2=C(c3cn(C4CCN(Cc5ccccn5)CC4)c4ccccc34)C(=O)NC2=O)c2ccccc21 [Enzastaurin] (10 µM),inactive: 0
22,CN(C)C(=O)c1ccc(Cn2c(C(=O)O)cc3c(Br)cc(Sc4ccc(Cl)c(Cl)c4)cc32)cc1 [Rheb inhibitor NR1] (10 µM),inactive: 0
23,C/C(O)=C(\C#N)C(=O)Nc1cc(Br)ccc1Br (10 µM),inactive: 0
24,O=C1c2ccccc2C(=O)c2c1cccc2-c1cnn(C2CCNCC2)c1 [PDK4-IN-1 (hydrochloride)] (10 µM),inactive: 0
25,COc1ccc(N(C(=O)Oc2c(C)cccc2C)c2ccnc(Nc3ccc(N4CCN(C)CC4)cc3)n2)c(OC)c1 (2.5 µM),inactive: 0
26,C[C@@H]1CC[C@H]2[C@@H](C)C(=O)O[C@@H]3O[C@@]4(C)CC[C@@H]1[C@]32OO4 [Artemisinin] (10 µM),inactive: 0
27,CC(C)(C)c1cc(C=C(C#N)C#N)cc(Br)c1O (2.5 µM),inactive: 0
28,CC1=C[C@]23C(=O)[C@@H](C=C(CO)[C@@H](O)[C@]2(O)[C@H]1O)[C@H]1[C@@H](C[C@H]3C)C1(C)C [Ingenol] (10 µM),inactive: 0
